From PMC11267527
No constants are given. Whether binding was seen depends on the method and setting. Binding seen in cells or lysates may run through a third protein. Some entries that bind do so weakly or less than the wild type.

Sequences of proteins named here, by UniProt entry; tags and fusion partners are left off.
UniProt Q9UJ55: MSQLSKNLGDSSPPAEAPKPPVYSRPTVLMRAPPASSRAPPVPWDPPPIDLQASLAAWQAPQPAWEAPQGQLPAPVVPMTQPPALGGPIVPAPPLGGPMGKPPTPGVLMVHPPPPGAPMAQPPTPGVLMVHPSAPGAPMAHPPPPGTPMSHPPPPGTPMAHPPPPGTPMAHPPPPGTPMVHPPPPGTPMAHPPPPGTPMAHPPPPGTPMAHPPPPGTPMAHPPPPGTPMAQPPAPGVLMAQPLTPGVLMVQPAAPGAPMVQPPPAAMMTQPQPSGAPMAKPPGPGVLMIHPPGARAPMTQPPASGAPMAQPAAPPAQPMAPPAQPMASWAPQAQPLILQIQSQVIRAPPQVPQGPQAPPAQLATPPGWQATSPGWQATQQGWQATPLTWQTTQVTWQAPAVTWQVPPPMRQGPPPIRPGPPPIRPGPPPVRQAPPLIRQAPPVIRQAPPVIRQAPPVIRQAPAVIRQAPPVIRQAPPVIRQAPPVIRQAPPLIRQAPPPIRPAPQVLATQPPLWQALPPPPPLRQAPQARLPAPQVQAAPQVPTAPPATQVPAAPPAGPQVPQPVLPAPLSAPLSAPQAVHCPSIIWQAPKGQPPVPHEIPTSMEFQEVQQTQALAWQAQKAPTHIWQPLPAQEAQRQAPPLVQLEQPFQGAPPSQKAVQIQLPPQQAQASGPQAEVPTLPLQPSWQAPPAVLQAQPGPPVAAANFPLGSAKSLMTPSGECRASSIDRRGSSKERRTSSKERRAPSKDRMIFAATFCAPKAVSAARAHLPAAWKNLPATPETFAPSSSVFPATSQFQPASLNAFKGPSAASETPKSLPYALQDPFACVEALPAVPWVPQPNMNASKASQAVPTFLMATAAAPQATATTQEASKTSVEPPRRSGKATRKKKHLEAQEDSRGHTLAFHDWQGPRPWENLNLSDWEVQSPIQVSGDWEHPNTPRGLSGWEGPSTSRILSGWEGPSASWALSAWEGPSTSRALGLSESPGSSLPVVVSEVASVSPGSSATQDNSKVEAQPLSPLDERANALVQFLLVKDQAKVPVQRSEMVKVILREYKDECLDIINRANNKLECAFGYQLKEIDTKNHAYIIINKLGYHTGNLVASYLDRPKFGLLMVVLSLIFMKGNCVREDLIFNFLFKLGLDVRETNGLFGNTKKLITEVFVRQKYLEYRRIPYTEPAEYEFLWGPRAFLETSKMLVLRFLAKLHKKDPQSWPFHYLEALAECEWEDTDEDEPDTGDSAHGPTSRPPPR
UniProt Q16637: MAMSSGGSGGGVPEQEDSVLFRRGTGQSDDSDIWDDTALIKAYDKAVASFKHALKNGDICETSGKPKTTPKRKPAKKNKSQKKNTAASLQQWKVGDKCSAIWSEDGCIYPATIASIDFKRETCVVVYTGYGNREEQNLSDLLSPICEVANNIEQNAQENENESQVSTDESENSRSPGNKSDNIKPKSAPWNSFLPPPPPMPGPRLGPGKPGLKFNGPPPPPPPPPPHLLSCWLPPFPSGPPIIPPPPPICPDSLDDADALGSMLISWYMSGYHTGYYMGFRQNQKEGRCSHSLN

Molecular target: WT GFP-MAGEL2 (GFPspark fused N-terminally to full-length wild-type human MAGEL2) (human) (UniProt Q9UJ55)
Test: co-IP; GFP-CoIP with western blot: GFPspark-MAGEL2 fusions in HEK293T lysate, mouse anti-GFP antibody overnight at 4 C, Protein A beads, elution in Laemmli buffer, blots for endogenous proteins (n = 3)

**Q.** “survival motor neuron protein (SMN) (from UniProt Q16637 1-294)” was tested. Which binding did it give?
**A.** binds
